## Library screen at single concentrations

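Whole-cell growth test on Mycobacterium tuberculosis, read after 4 days in a medium based on cholesterol and the lipid DPPC; the read-out is not stated. Concentration: 500 µM. Higher reads as more growth inhibition (inferred: compounds with an IC50 in retests scored well above the rest). Size under these conditions: about 18,000 compounds, about 900 of them at 50% or above in at least one test.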

Values are the deposited “Percent Effect”, in %. How 0% and 100% were set is not recorded. Most values in the screen are low, and negative values occur. Compounds were drawn at random from those tested, without regard to their results.

* COc1ccc(CCC(=O)NCCCC(N)=O)cc1Cl | 1.182%
* CC(C(=O)NCc1cccs1)n1cccn1 (configuration not stated) | 5.918%
* CCN(CCn1cccn1)C(=O)c1cc(=O)cc(C)o1 | -8.841%
* Cc1ccc(C(=O)NCc2ccnc(N(C)C)c2)cn1 | 11.6%
* CC1CCCN1C1CCN(CCNS(C)(=O)=O)CC1 (configuration not stated) | 31.72%
* N#Cc1ccc(NCc2ccccc2F)nc1 | 47.7%
* COC1(CO)CCOC1 (configuration not stated) | 0.9325%
* CCN(CC1CCOC1)C(=O)c1cc(I)c[nH]1 (configuration not stated) | 59.56%
* OCC1(CNC2CCCSC2)CCOCC1 (configuration not stated) | 7.511%
* Ic1cnn(C2CCNCC2)c1 | 20.4%
* Cn1cc(C(=O)NCCc2nnc3ccccn23)cn1 | -6.371%
* O=S(=O)(CCc1ccccc1)NCCCO | -5.782%
* CN(C)C(CNC(=O)c1ccncc1)c1ccsc1 (configuration not stated) | 4.467%
* CNC(=O)NCCS(=O)(=O)NCc1ccc(F)cc1 | -9.785%
* CC(C)COCC1CCNCC1 | 11.49%
* CCC(N)C(=O)Nc1ccc2c(c1)C(=O)CCC2 (configuration not stated) | 28.58%
* NS(=O)(=O)NCCCc1ccc(Br)cc1F | 90.55%
* Cn1ncc(C#N)c1N | 17.61%
* CC(=O)Nc1ccc(C2=NN=C(NC(C)C)SC2)cc1 | 20.96%
* C=Cc1nnnn1-c1ccccc1 | 14.7%
* Cn1ncnc1NC(=O)c1ccc(Br)cn1 | 15.83%
* O=C(NC1(c2nnc[nH]2)CCC1)c1ccc(Cl)cn1 | 1.987%
* Cc1nc(NC(=O)c2cccs2)sc1C(=O)N(C)C | 20.3%
* COC(=O)CNc1cc(Cl)ccc1C(=O)N1CCCC1 | 4.256%
* CC(C)c1noc(CCC(=O)N2CCCC2)n1 | 42.07%
* CCn1cc(N)cn1 | 19.66%
* CCOc1cccc(CCNC(=O)N(C)C(C)C)n1 | 18.07%
* CNC(=O)CCS(=O)(=O)Cc1nc(C(C)C)no1 | 5.136%
* CC[C@H](C)[C@@H](CO)NC(=O)CCc1ccncc1 | -10.98%
* O=C(c1ccncc1)N1C[C@H](O)[C@@H](N2CCCCC2)C1 | -20.98%
* CC(=O)c1cccc(C(=O)N2CCCC(C#N)C2)c1 (configuration not stated) | -5.251%
* O=C(NCCCNCc1cccnc1)c1occc1Br | -5.088%
* CN(C(=O)NC1CCCCC1)C1CC[S+]([O-])CC1 (configuration not stated) | 1.41%
* Cc1ccc(C2(O)CCNC2)cc1 (configuration not stated) | 47.26%
* COc1ccc(CCNC(C)=O)c(F)c1 | -7.276%
* Cn1cc(C2CCCCN2)cn1 (configuration not stated) | 1.996%
* COc1ccccc1CC(=O)Nc1ccon1 | 16.98%
* CCC(=O)N1CCCN(C(=O)C(N)C(C)(C)C)CC1 (configuration not stated) | -14.78%
* COCCC(=O)NCC(O)c1c(Cl)cccc1Cl (configuration not stated) | -7.411%
* COc1ccnc(N)c1 | -13.33%
* CCCNC(=O)C(C)NS(=O)(=O)c1ccccc1 (configuration not stated) | -13.8%
* NCC(CO)Cc1ccco1 (configuration not stated) | -16.88%

Some entries from above, unchanged:

{"smiles": "COc1ccc(CCNC(C)=O)c(F)c1", "Percent Effect": -7.276}
{"smiles": "OCC1(CNC2CCCSC2)CCOCC1", "stereo": "configuration not stated", "Percent Effect": 7.511}
{"smiles": "N#Cc1ccc(NCc2ccccc2F)nc1", "Percent Effect": 47.7}
{"smiles": "CC(=O)c1cccc(C(=O)N2CCCC(C#N)C2)c1", "stereo": "configuration not stated", "Percent Effect": -5.251}
{"smiles": "Cc1ccc(C(=O)NCc2ccnc(N(C)C)c2)cn1", "Percent Effect": 11.6}

Data taken from ChEMBL document CHEMBL3988442, “University of Dundee, Small-Polar-MMV Screening Library” (2021).